Assay results as given in article doi:10.1101/2021.10.17.464745.
Results are given in words; binding and its absence hold for the method and conditions named. In cells and extracts the contact can be indirect. Some results given as binding are weak or reduced against the parent protein; the word gives no strength.

Chains of the proteins cited; added tags and fusions are not shown.
UniProt P01108: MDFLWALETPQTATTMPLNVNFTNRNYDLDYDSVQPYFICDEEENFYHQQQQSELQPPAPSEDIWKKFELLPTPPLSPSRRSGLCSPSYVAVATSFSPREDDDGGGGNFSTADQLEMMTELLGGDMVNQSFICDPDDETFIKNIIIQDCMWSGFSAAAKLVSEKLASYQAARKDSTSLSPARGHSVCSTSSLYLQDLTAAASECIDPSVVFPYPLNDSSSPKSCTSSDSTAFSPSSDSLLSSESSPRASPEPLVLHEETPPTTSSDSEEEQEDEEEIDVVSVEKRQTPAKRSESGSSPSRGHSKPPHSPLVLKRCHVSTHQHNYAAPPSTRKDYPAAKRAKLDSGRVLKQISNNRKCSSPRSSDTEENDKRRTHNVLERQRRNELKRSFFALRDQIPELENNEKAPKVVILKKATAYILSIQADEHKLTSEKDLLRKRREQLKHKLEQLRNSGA
UniProt P01106: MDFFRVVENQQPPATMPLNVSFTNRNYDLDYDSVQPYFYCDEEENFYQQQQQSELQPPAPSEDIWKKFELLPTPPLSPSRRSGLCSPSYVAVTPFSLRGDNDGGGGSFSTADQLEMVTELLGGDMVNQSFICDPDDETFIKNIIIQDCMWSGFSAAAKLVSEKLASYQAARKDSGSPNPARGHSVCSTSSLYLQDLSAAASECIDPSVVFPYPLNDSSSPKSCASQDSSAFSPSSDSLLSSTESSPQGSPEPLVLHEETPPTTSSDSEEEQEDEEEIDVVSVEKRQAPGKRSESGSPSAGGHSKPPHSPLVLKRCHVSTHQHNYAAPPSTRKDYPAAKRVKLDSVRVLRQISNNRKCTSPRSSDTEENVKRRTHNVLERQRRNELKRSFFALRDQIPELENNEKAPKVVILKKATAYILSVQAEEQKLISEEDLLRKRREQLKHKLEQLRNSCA

Assays:
[1] = target: T1, phosphoglycerate dehydrogenase (Phgdh), mouse liver (mouse (endogenous in liver)) (UniProt Q61753); assay: co-IP
T1 sequence: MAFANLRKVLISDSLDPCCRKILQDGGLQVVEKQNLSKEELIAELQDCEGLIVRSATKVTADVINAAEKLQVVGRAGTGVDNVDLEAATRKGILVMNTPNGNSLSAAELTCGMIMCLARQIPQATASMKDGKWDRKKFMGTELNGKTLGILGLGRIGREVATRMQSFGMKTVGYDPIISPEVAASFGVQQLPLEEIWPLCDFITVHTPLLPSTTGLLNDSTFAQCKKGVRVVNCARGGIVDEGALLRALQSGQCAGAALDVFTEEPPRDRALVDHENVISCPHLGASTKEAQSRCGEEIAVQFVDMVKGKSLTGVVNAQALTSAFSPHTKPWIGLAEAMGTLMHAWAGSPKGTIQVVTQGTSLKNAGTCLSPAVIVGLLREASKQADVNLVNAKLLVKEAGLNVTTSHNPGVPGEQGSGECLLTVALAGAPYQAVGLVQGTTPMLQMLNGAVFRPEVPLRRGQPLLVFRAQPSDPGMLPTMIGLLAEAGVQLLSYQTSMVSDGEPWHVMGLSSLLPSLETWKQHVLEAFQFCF

[2] = target: T2, phosphoglycerate dehydrogenase (PHGDH), endogenous in human liver cancer cells (human (endogenous in PLC/PRF/5 and Hep3B)) (UniProt O43175); assay: co-IP
T2 sequence: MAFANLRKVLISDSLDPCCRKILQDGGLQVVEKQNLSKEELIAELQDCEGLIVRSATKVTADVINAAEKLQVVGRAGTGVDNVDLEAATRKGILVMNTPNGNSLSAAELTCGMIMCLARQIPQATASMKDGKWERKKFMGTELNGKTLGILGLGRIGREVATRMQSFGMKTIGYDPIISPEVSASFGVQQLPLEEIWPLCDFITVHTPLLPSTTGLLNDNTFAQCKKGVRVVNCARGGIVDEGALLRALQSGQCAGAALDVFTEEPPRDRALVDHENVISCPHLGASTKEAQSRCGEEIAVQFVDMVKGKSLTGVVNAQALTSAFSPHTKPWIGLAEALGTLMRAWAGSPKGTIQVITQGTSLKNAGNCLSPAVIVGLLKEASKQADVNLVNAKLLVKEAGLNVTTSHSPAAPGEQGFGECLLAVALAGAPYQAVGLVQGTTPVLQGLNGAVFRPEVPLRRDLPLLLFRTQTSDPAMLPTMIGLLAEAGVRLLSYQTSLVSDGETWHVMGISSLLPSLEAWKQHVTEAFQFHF

| Substance | binding [1] | binding [2] |
| --- | --- | --- |
| cMyc, mouse liver (from UniProt P01108 1-454) | binds |  |
| cMyc, endogenous in human liver cancer cells (from UniProt P01106 1-454) |  | binds |
